Data on one substance can be found in PMC12334247.

No constants are given. Whether binding was seen depends on the method and setting. For some assays here: Binding calls can cover weak binding; strength is not graded here. Where a sequence is shown, tags or fusion partners need not be part of it.

What all share (assay): two-hybrid; yeast strain PJ694-a; fusions to AD (pDEST22) and BD (pDEST32); -Leu/-Trp selects co-transformation, -Leu/-Trp/-His/-Ade selects for strong interaction
Test [1] has as its target T1, Armadillo BTB Arabidopsis protein 1 (ABAP1), yeast two-hybrid fusion (Arabidopsis thaliana) (UniProt B7U179).
T1 sequence: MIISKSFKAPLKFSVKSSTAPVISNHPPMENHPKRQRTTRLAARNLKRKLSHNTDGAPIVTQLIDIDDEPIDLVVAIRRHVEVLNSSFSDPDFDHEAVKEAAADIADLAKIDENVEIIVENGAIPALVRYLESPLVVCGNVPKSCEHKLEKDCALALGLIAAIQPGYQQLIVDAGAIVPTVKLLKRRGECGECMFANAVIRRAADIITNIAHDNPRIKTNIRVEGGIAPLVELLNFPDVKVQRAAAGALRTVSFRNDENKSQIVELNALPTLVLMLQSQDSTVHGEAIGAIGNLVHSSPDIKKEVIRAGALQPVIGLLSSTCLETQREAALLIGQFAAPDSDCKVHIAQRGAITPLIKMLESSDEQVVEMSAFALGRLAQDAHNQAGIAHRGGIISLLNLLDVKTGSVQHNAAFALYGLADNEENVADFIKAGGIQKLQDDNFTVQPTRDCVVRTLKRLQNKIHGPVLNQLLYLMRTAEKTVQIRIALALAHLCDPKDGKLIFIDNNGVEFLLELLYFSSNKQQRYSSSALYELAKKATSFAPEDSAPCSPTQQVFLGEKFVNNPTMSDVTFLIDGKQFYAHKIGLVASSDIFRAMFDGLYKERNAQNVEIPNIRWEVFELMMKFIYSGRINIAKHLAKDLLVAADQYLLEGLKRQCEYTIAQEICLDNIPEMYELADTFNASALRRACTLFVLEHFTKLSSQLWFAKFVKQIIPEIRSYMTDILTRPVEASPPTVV

The target in test [2] is T2, KIN10 (SnRK1α1), yeast two-hybrid fusion (Arabidopsis thaliana) (UniProt Q38997).
T2 sequence: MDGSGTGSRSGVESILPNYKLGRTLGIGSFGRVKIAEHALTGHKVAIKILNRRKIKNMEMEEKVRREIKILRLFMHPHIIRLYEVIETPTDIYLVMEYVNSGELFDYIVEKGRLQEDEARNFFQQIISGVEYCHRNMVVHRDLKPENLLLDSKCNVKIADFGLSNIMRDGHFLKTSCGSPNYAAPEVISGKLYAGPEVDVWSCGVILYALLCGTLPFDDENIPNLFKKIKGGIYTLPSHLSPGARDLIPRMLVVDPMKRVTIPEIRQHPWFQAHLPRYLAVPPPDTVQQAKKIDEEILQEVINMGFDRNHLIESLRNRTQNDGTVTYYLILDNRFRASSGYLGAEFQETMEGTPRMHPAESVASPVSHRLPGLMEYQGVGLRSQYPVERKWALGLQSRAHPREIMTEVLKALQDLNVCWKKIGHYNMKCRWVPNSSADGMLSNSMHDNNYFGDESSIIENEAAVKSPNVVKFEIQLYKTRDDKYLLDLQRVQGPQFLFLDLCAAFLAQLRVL

Test [3] deals with T3, ORC2 (origin recognition complex subunit 2), yeast two-hybrid fusion (Arabidopsis thaliana) (UniProt Q38899).
T3 sequence: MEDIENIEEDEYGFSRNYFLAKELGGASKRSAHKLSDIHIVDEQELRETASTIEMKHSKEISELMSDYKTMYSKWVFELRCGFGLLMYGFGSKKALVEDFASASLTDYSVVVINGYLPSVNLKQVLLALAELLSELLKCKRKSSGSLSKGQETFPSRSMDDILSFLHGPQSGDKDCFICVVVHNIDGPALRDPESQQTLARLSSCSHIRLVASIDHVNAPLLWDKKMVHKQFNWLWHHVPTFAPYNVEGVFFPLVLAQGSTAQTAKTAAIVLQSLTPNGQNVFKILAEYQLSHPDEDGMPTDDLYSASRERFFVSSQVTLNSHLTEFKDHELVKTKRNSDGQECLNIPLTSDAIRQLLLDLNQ

Test [4] deals with T4, ORC5 (origin recognition complex subunit 5), yeast two-hybrid fusion (Arabidopsis thaliana) (UniProt Q6EWX0).
T4 sequence: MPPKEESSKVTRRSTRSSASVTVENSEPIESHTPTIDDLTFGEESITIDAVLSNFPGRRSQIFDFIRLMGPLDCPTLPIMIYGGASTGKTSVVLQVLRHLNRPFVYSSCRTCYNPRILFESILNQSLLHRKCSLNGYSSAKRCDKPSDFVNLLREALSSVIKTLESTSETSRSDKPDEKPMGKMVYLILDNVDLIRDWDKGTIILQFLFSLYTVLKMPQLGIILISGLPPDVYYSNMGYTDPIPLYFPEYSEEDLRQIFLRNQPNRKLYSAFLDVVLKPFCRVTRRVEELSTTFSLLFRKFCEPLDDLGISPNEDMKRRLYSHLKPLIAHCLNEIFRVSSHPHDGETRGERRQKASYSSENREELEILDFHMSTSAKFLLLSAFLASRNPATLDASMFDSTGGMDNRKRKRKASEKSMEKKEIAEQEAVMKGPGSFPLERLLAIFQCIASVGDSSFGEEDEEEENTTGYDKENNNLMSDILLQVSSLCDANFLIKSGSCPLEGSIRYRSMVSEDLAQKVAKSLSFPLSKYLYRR

Test [5] deals with T5, ORC6 (origin recognition complex subunit 6), yeast two-hybrid fusion (Arabidopsis thaliana) (UniProt Q9ZVH3).
T5 sequence: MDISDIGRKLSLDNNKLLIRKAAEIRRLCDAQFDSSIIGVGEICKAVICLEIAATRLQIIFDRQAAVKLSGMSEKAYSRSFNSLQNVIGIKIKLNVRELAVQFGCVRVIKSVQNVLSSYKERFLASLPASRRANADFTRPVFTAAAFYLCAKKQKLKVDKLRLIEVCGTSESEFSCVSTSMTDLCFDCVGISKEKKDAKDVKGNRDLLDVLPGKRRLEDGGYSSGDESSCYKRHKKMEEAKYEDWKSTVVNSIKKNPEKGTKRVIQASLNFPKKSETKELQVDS

In the case of “ABAP1 interacting protein 10 (AIP10), yeast two-hybrid fusion (Arabidopsis thaliana)”, the binding result was “binds” in test [1]; “binds” in test [2]; “no binding” in test [3]; “no binding” in test [4]; “no binding” in test [5].
